The values that follow come from PMC12131314, “Design, synthesis and cytotoxic research of a novel antitumor model based on acrylamide–PABA analogs via β-tubulin inhibition” (RSC Advances, 2025).

For this test, the system named is MCF-7 breast cancer cell line. In words: MTT cytotoxicity assay, MCF-7 breast cancer cell line. It is filed as cell-based. Conditions: Homo sapiens, MCF7, read-out: IC50 (μM) MCF-7. Here is the method: The MTT colorimetric technique was used to evaluate the cytotoxic activity of the newly produced acrylamide–PABA hybrids 4a–j against the MCF-7 breast cancer cell line.
S4.2.1. Cytotoxic activity evaluation
To measure the cytotoxic actvity of the synthesized acrylamide-PABA derivatives 4a-j in breast MCF-7 (ATCC Cat. No. HTB-22), liver HepG2 (ATCC Cat No. HB-8065), and normal breast MCF-10A (ATCC Cat. No. CRL 10317) cell lines, cell viability assay was assessed using MTT assay method. Cells at density of 1 x 104 were seeded in a 96-well plate at 37 °C for 24 h under 5% CO2. After incubation, the cells were treated with different concentrations of the test acrylamide-PABA hybrids 4a-j and incubated for 24 h, then 20 µl of MTT solution at 5 mg/mL was applied and incubated for 4 h at 37 °C. Dimethyl sulphoxide (DMSO) in volume of 100 µl was added to each well to dissolve the purple formazan that had formed. The color intensity of the formazan product, which represents the growth condition of the cells, is quantified by using an ELISA plate reader (EXL 800, USA) at 570 nm absorbance. The experimental conditions were carried out with at least three replicates, and the experiments were repeated at least three times. […]

The term IC50 denotes the point on the concentration scale where inhibition reaches its midpoint.

As for `COc1cc2c(c(OC)c1OC)-c1ccc(OC)c(=O)cc1[C@@H](NC(C)=O)CC2` [Col, Colchicine, reference compound], the IC50 came out at 3.54 ± 0.08 µM.
